From patent publication US20240100105A1, “BACTERIOPHAGE TREATMENT FOR ACNE AND BIOFILMS” (priority 2017, published 2024)
At least one structure is not confirmed: it was looked up by name or label, or the drawing left a doubt.

Tested on: P. granulosum clinical isolates 2004-8, 2004-4 and 2002-1
Assay: Spot/drop assay on clinical isolates of P. granulosum (2004-8, 2004-4 and 2002-1)
Assay type: cell-based
Settings: Clindamycin 1% gel ~10 μL; Erythromycin 20 μg/mL 5 μL, applied directly to bacterial lawn
Protocol: These bacterial strains show sensitivity to Clindamycin (1% gel, ˜10 μL) and Erythromycin (20 μg/mL, 5 μL) when the antibiotics are applied directly to a bacterial lawn of these strains, but are resistant to all the tested phage.

CCC[C@@H]1C[C@@H](C(=O)N[C@@H]([C@H]2O[C@H](SC)[C@H](O)[C@@H](O)[C@H]2O)[C@H](C)Cl)N(C)C1 [Clindamycin]
response of P. granulosum isolates to antibiotics: sensitivity
